Structures are written as SMILES. Read-outs that look alike come from different tables or passages of the source. A value given as a limit tells only on which side of the number the result lay.

A short description of series [1]: in vivo. Here is the method:
From these toxicity profiles the NOAEL and the LOAEL were determined. Exposure experiments were performed in Pyrex® beakers, each containing 200 mL of AFW at 15 °C and ten adult animals (> 5 mg wet weight, ww). Live/dead animals were counted after 24 h by gently prodding and observing movement of appendages. The pharmaceutical concentrations tested were in the range of 0.01 to 250 mg L^− 1. […] Concentrations where 100, 50 and 0% of the animals died were repeated in duplicate or triplicate.

For series [2], the system named is Thamnocephalus platyurus. The following applies: ref Kim et al., 2009; cited from earlier work.

As usually defined, the LC50 is the concentration lethal to half of the exposed cells or organisms. Low values mean greater toxicity, high ones lower toxicity. With `NS(=O)(=O)c1cc(C(=O)O)c(NCc2ccco2)cc1Cl` [Furosemide], in series [1], the 50% lethal concentration (LC50) at 24 h was greater than 73.1 µg/mL.

For the compound `CC(C)NCC(O)COc1ccc(CC(N)=O)cc1` (stereo not drawn) [Atenolol], in series [1] (Gammarus pulex), the LC50 at 24 h was greater than 100 µg/mL. Also, the “24 h- LC50 T. platyurus” value in series [2] is greater than 100 µg/mL.

The values above are taken from paper PMC4912218, “Targeted metabolomics of Gammarus pulex following controlled exposures to selected pharmaceuticals in water” (The Science of the Total Environment, 2016).
